Paper doi:10.1101/2025.09.04.674117
Results are given in words; binding and its absence hold for the method and conditions named. Binding seen in cells or lysates may run through a third protein. Some results given as binding are weak or reduced against the parent protein; the word gives no strength. Tags and fused reporters may be left off the sequences shown.

By UniProt entry, the sequences of proteins in these tests, tags left out.
UniProt Q14974: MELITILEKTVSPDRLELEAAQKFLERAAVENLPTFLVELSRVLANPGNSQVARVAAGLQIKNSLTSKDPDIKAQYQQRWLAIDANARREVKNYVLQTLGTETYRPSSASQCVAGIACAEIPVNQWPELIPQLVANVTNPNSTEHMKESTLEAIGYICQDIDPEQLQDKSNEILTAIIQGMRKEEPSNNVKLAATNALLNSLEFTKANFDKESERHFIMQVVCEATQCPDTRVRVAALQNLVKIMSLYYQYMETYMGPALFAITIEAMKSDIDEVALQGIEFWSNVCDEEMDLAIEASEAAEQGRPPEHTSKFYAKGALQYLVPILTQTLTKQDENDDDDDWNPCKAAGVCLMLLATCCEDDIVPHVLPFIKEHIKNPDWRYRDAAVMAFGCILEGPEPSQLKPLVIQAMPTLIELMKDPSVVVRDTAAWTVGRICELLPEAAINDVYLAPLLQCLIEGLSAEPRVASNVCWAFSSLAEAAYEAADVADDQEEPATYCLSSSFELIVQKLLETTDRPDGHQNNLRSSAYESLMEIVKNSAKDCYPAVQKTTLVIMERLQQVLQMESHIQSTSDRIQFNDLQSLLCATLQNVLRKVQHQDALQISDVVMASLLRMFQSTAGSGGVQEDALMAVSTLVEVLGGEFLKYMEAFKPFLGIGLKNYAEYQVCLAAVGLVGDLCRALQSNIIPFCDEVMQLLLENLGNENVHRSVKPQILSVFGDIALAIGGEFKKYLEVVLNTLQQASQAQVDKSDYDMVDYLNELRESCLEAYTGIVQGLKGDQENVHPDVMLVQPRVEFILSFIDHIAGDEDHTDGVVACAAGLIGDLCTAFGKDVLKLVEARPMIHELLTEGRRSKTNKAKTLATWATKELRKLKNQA

Biological target: Glutathione S-transferase (GST)-tagged importin-β1 (UniProt Q14974)
Assay: pull-down

Row | binding | Binder
1 | binds | mNeonGreen (mNG)-tagged Ect2 (328-388), non-mutant control (domain or fragment, UniProt Q9H8V3-4 328-388) TPELKKSVSMLSLNTPNSNRKRRRLKETLAQLSRETDVSPFPPRKRPSAEHSLSIGSLLDI
2 | binds | mNeonGreen:Ect2^3A (328-388) (domain or fragment, UniProt Q9H8V3-4 328-388) TPELKKSVSMLSLNTPNSNRAAARLKETLAQLSRETDVSPFPPRKRPSAEHSLSIGSLLDI
